experiment: Acid diffusion length evaluation (acid source layer / acid detector layer bilayer, 193 nm open frame exposure, film thickness loss); type: physicochemical; details: 193 nm exposure, calculated from film thickness loss by equations 1 and 2

| Molecule | PAG acid diffusion length (nm) (PEB = 120° C./60 sec) |
| --- | --- |
| O=C(OCCC(F)(F)C(F)(F)S(=O)(=O)O)C12CC3CC(CC(C3)C1)C2 [Comp. PAG1, reference compound] | 55.9 |
| O=C(OCC(F)(F)S(=O)(=O)O)C12CC3CC(CC(C3)C1)C2 [Comp. PAG2, reference compound] | 47.7 |
| TPS DiAdOH-DFES [Ex. 2 (TPS-DiAdOH-DFES)] | 6.0 |
